{"source": "PubChem BioAssay AID504793 (Drosophila RNAi Screening Center, 2011)", "assay": "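Whole-genome screen for parts of the DNA damage checkpoint at G2/M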 (primary screen)", "cell system": "Drosophila S2R+ cells", "reagents": "long dsRNA against Drosophila genes, about 0.25 µg dsRNA per well", "time to read-out": "4 days of dsRNA, then 4 hours of drug before read-out", "conditions": "doxorubicin 0.5 µM for 4 hours to cause double-strand breaks, in cells also given a low, harmless dose of dsRNA against nbs to sensitise the assay", "read-out": "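Mitotic index as the number of phospho-histone H3-positive cells in each well following doxorubicin, given as raw counts without normalisation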", "reading the numbers": "mitotic cells: higher = more cells in mitosis, weaker G2 arrest", "hit rule": "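Genes are called active only when high mitotic counts were reproduced with independent dsRNAs and mitosis was checked for delay without damage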", "calls": "active = confirmed in follow-up tests; inactive = not confirmed", "note": "The deposit covers about 23,000 reagents; this is a random part of those with a known target gene and a result. Of all reagents, 62 (0.27%) were called active. 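Calls come from follow-up tests whose scores are not deposited, so confirmed genes may have low counts here; counts are not normalised per plate.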 Raw values are not corrected between plates. A number with no mark means an inactive call. A plus sign joins genes that one reagent is predicted to hit. No sequences are given here."}
{"gene":"CG42557 + CG42558","DRSC id":"DRSC13963","mitotic cells, replicate 1":10}
{"gene":"CG42557 + CG42558","DRSC id":"DRSC16329","mitotic cells, replicate 1":11}
{"gene":"Mettl5 + CG42374","DRSC id":"DRSC26961","mitotic cells, replicate 1":7}
{"gene":"S-Lap3","DRSC id":"DRSC10956","mitotic cells, replicate 1":5}
{"gene":"S-Lap3","DRSC id":"DRSC23958","mitotic cells, replicate 1":3}
{"gene":"Acyp2","DRSC id":"DRSC15336","mitotic cells, replicate 1":6}
{"gene":"CG14294","DRSC id":"DRSC14774","mitotic cells, replicate 1":5}
{"gene":"CG10324","DRSC id":"DRSC14230","mitotic cells, replicate 1":1}
{"gene":"Nep2","DRSC id":"DRSC12126","mitotic cells, replicate 1":4}
{"gene":"Nep2","DRSC id":"DRSC21398","mitotic cells, replicate 1":5}
{"gene":"Desi","DRSC id":"DRSC14909","mitotic cells, replicate 1":3}
{"gene":"CG5327 + CG5493","DRSC id":"DRSC25926","mitotic cells, replicate 1":6}
{"gene":"CG4332","DRSC id":"DRSC19890","mitotic cells, replicate 1":16}
{"gene":"CG8929","DRSC id":"DRSC07298","mitotic cells, replicate 1":5}
{"gene":"CG8929","DRSC id":"DRSC22847","mitotic cells, replicate 1":10}
{"gene":"ZnT41F","DRSC id":"DRSC04850","mitotic cells, replicate 1":7}
{"gene":"CG15822","DRSC id":"DRSC08482","mitotic cells, replicate 1":5}
{"gene":"CG15822","DRSC id":"DRSC08483","mitotic cells, replicate 1":10}
{"gene":"Bulli","DRSC id":"DRSC10974","mitotic cells, replicate 1":8}
{"gene":"Rab35","DRSC id":"DRSC20691","mitotic cells, replicate 1":5}
{"gene":"Rab35","DRSC id":"DRSC26739","mitotic cells, replicate 1":6}
{"gene":"Est-P","DRSC id":"DRSC11163","mitotic cells, replicate 1":5}
{"gene":"Est-P","DRSC id":"DRSC39152","mitotic cells, replicate 1":4}
{"gene":"CG13285","DRSC id":"DRSC09960","mitotic cells, replicate 1":6}
{"gene":"Gr43a","DRSC id":"DRSC06658","mitotic cells, replicate 1":1}
{"gene":"CG12507","DRSC id":"DRSC19463","mitotic cells, replicate 1":9}
{"gene":"CG32163","DRSC id":"DRSC09442","mitotic cells, replicate 1":4}
{"gene":"CG32163","DRSC id":"DRSC28736","mitotic cells, replicate 1":4}
{"gene":"CG32651","DRSC id":"DRSC18941","mitotic cells, replicate 1":4}
{"gene":"lva","DRSC id":"DRSC18403","mitotic cells, replicate 1":6}
{"gene":"lva","DRSC id":"DRSC27594","mitotic cells, replicate 1":11}
{"gene":"CG3918","DRSC id":"DRSC23159","mitotic cells, replicate 1":17}
{"gene":"CG3918","DRSC id":"DRSC28834","mitotic cells, replicate 1":4}
{"gene":"CG7766","DRSC id":"DRSC18424","mitotic cells, replicate 1":7}
{"gene":"qin","DRSC id":"DRSC14782","mitotic cells, replicate 1":8}
{"gene":"CG12835 (retired record)","DRSC id":"DRSC06181","mitotic cells, replicate 1":5}
{"gene":"CG12835 (retired record)","DRSC id":"DRSC27647","mitotic cells, replicate 1":5}
{"gene":"CG3457","DRSC id":"DRSC18509","mitotic cells, replicate 1":11}
{"gene":"CG3457","DRSC id":"DRSC26458","mitotic cells, replicate 1":4}
{"gene":"CG40282 (retired record)","DRSC id":"DRSC07814","mitotic cells, replicate 1":20}
{"gene":"CG17264","DRSC id":"DRSC00500","mitotic cells, replicate 1":9}
{"gene":"CG17264","DRSC id":"DRSC29452","mitotic cells, replicate 1":3}
{"gene":"CG33339","DRSC id":"DRSC22917","mitotic cells, replicate 1":8}
{"gene":"CG33339","DRSC id":"DRSC29651","mitotic cells, replicate 1":6}

4 neighbouring reagents from above, for reference:
{"gene":"Est-P","DRSC id":"DRSC39152","mitotic cells, replicate 1":4}
{"gene":"CG13285","DRSC id":"DRSC09960","mitotic cells, replicate 1":6}
{"gene":"Gr43a","DRSC id":"DRSC06658","mitotic cells, replicate 1":1}
{"gene":"CG12507","DRSC id":"DRSC19463","mitotic cells, replicate 1":9}
